The subject of this assay is BDF1 mice, P388 leukemia ip, median survival T/C. Description: NCI In Vivo Anticancer Drug Screen. Data for tumor model P388 Leukemia (intraperitoneal) in B6D2F1 (BDF1) mice. The following applies: T/C endpoint: median survival time, higher T/C = longer survival. The gist of the method:
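Mice carrying the transplantable tumour receive compound or vehicle. Survival is followed in each arm, and the treated measure is divided by the vehicle measure.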

[1] abbreviates: dose: 100.0 mg/kg/injection, schedule: Q01DX009 (ip), vehicle: Klucel (hydroxypropylcellulose) (HPC).
The mark [2] stands for this setting: dose: 200.0 mg/kg/injection, schedule: Q01DX009 (ip), vehicle: Klucel (hydroxypropylcellulose) (HPC).
Setting [3] is: dose: 400.0 mg/kg/injection, schedule: Q01DX009 (ip), vehicle: Klucel (hydroxypropylcellulose) (HPC).
Setting [4] is: dose: 400.0 mg/kg/injection, schedule: Q01DX009 (ip), vehicle: saline with Tween-80.
Where [5] appears, read: dose: 75.0 mg/kg/injection, schedule: Q04DX003 (ip), vehicle: saline with Tween-80.

The list shows only some results of the screen, not a fair sample: it gathers tests that were run many times, whatever their T/C, doses with no T/C, and many T/C values between a quarter and a half above the control. Further doses and runs are listed elsewhere. T/C gives the treated animals as a percentage of the vehicle group. Some entries give survivors of the animals treated and no T/C: the source holds a T/C of zero for them, seemingly a mark for toxic or unscored doses. Some doses without a T/C left all or most animals alive at the check, yet need not have been tolerated: survival well below the control is almost never listed, so the zero probably covers shortened survival too. Survivors were counted at the toxicity check, usually on the fifth day, unless a day is given; later deaths do not show. Schedules are NCI's codes, taken here to give the interval after Q, in days (D) or hours (H), and the number of doses after X. Where survival is the endpoint, this PubChem deposit counts one and a half times the control or more as active, and values a quarter to a half above the control carry no call in these data; other NCI protocols may use other cut-offs. Some entries hold several experiments; the values are given in rising order. Some T/C values carry the count of animals alive at the toxicity check (mostly the fifth day); without a count, all were alive then.

On to `c1ccc(C2CCCCCC2)cc1`, for which the T/C runs as follows: (dose: 66.0 mg/kg/injection, schedule: Q01DX009 (ip), vehicle: saline) 145 % of control; (dose: 100.0 mg/kg/injection, schedule: Q01DX009 (ip), vehicle: saline) 130 % of control. Besides, the survivor count (dose: 400.0 mg/kg/injection, schedule: Q01DX009 (ip), vehicle: saline) was 6 of 6.
Regarding `O=[As]c1ccc(Br)cc1` (stereo unspecified), the survivor count was 5 of 6 (dose: 3.0 mg/kg/injection, schedule: Q01DX009 (ip), vehicle: Klucel (hydroxypropylcellulose) (HPC)); 0 of 6 (dose: 6.0 mg/kg/injection, schedule: Q01DX009 (ip), vehicle: Klucel (hydroxypropylcellulose) (HPC)); 0 of 6 (dose: 12.0 mg/kg/injection, schedule: Q01DX009 (ip), vehicle: Klucel (hydroxypropylcellulose) (HPC)); 0 of 6 (dose: 12.5 mg/kg/injection, schedule: Q01DX009 (ip), vehicle: Klucel (hydroxypropylcellulose) (HPC)); 0 of 6 (dose: 25.0 mg/kg/injection, schedule: Q01DX009 (ip), vehicle: Klucel (hydroxypropylcellulose) (HPC)); 0 of 6 (dose: 50.0 mg/kg/injection, schedule: Q01DX009 (ip), vehicle: Klucel (hydroxypropylcellulose) (HPC)). Besides, the survivor count under setting [1] is 0 of 6, the survivor count under setting [2] is listed as 0 of 6 and the survivor count under setting [3] is 0 of 6.
`CP(c1ccccc1)c1ccccc1`: the T/C was 127 % of control under setting [1] and 136 % of control under setting [2].
As for `Cc1nc2[nH][nH]c(=O)c2nc1C`, under setting [3], the T/C was 130 % of control.
As for `Nc1ncc(Cl)c2ccccc12`, the survivor count runs as follows: (dose: 12.5 mg/kg/injection, schedule: Q01DX005 (ip), vehicle: saline with Tween-80) 3 of 5; (dose: 50.0 mg/kg/injection, schedule: Q01DX005 (ip), vehicle: saline with Tween-80) 5 of 5.
For the molecule `CC(=O)OC1C(=O)C(O)C(C)OC1O[C@@H]1C[C@@]2(C)[C@@H]3CC=C4[C@@H](C[C@H](O)C(=O)C4(C)C)[C@]3(C)C(=O)C[C@]2(C)[C@H]1[C@@](C)(O)C(=O)/C=C/C(C)(C)O` (stereo partly specified), the T/C is 135 % of control (dose: 0.44 mg/kg/injection, schedule: Q01DX009 (ip), vehicle: saline); 130 % of control (dose: 0.66 mg/kg/injection, schedule: Q01DX009 (ip), vehicle: saline); 125 % of control (dose: 1.0 mg/kg/injection, schedule: Q01DX009 (ip), vehicle: saline); 135 % of control [5 of 6 alive] (dose: 1.5 mg/kg/injection, schedule: Q01DX009 (ip), vehicle: saline). The survivor count was 6 of 6 (dose: 1.0 mg/kg/injection, schedule: Q01DX010 (ip), vehicle: carboxymethylcellulose (CMC)); 2 of 6 (dose: 2.0 mg/kg/injection, schedule: Q01DX010 (ip), vehicle: carboxymethylcellulose (CMC)); 2 of 6 (dose: 4.0 mg/kg/injection, schedule: Q01DX009 (ip), vehicle: saline); 0 of 6 (dose: 4.0 mg/kg/injection, schedule: Q01DX010 (ip), vehicle: carboxymethylcellulose (CMC)); 0 of 6 (dose: 5.0 mg/kg/injection, schedule: Q01DX010 (ip), vehicle: saline); 1 of 6 (dose: 10.0 mg/kg/injection, schedule: Q01DX010 (ip), vehicle: saline).
As for `COc1ccc(OC)c(Br)c1`, under setting [4], the T/C is 140 % of control.
Take `Clc1nc(SC2=NCCN2)c2[nH]cnc2n1`: the T/C is, setting by setting: (dose: 25.0 mg/kg/injection, schedule: Q04DX003 (ip), vehicle: saline with Tween-80) 141 % of control; (dose: 33.0 mg/kg/injection, schedule: Q04DX003 (ip), vehicle: saline with Tween-80) 129 % of control; (dose: 50.0 mg/kg/injection, schedule: Q04DX003 (ip), vehicle: saline with Tween-80) 127 and 137 % of control; under setting [5], 125 % of control [4 of 6 alive]. In addition, the survivor count under setting [5] is given as 1 of 6.
`ClCC(Cl)CN1CCCCC1` (stereo unspecified): the survivor count is, setting by setting: (dose: 75.0 mg/kg/injection, schedule: Q01DX009 (ip), vehicle: saline) 6 of 6; (dose: 75.0 mg/kg/injection, schedule: Q04DX003 (ip), vehicle: saline) 2 of 6; (dose: 115.0 mg/kg/injection, schedule: Q01DX009 (ip), vehicle: saline) 2 of 6; (dose: 115.0 mg/kg/injection, schedule: Q04DX003 (ip), vehicle: saline) 3 of 6; (dose: 170.0 mg/kg/injection, schedule: Q01DX009 (ip), vehicle: saline) 0 of 6; (dose: 170.0 mg/kg/injection, schedule: Q04DX003 (ip), vehicle: saline) 1 of 6.
With `CCOC(=O)C(Cc1ccc(N(CCCl)CCCl)cc1)NC(=O)C(CC(C)C)NC(C)=O` (stereo unspecified), under “dose: 20.0 mg/kg/injection, schedule: Q04DX003 (ip), vehicle: water”, the T/C is 131 % of control.
With `Cc1ccc(C[P+](c2ccccc2)(c2ccccc2)c2ccccc2)cc1`, under “dose: 20.0 mg/kg/injection, schedule: Q01DX010 (ip), vehicle: saline”, the survivor count is recorded as 4 of 6.
Consider `O=[N+]([O-])C=C(S)S`, for which the survivor count (dose: 200.0 mg/kg/injection, schedule: Q01DX009 (ip), vehicle: water) is 0 of 6.
On to `CCCCCCSc1ncnc2nc[nH]c12`, for which the survivor count under setting [4] was 3 of 6.
On to `CO[C@@H]1[C@H](O)CC[C@]2(CO2)[C@H]1[C@@]1(C)O[C@@H]1CC=C(C)C`, for which the survivor count is, setting by setting: (dose: 3.13 mg/kg/injection, schedule: Q01DX009 (ip), vehicle: saline) 6 of 6; (dose: 6.25 mg/kg/injection, schedule: Q01DX009 (ip), vehicle: saline) 6 of 6; (dose: 25.0 mg/kg/injection, schedule: Q01DX009 (ip), vehicle: saline) 6 of 6; (dose: 37.5 mg/kg/injection, schedule: Q01DX009 (ip), vehicle: saline) 6 of 6. The T/C (dose: 25.0 mg/kg/injection, schedule: Q01DX009 (ip), vehicle: saline with Tween-80) is 130 % of control.
For `ClCCN(CCCl)CCOc1ccc(-c2nc3ccccc3[nH]2)cc1`, the T/C (dose: 6.25 mg/kg/injection, schedule: Q04DX002 (ip), vehicle: saline) is 144 % of control. The survivor count (dose: 25.0 mg/kg/injection, schedule: Q04DX002 (ip), vehicle: saline) is given as 4 of 6.
Regarding `CCN(CC)Cc1cc(Nc2c3ccccc3nc3cc(Cl)ccc23)ccc1O`, where the note is “dose: 50.0 mg/kg/injection, schedule: Q01DX009 (ip), vehicle: saline”, the T/C was 145 % of control.
With `Cn1c2nc(=O)n(-c3ccccc3)c(=O)c-2nc2ccccc21`, the survivor count is, setting by setting: (dose: 100.0 mg/kg/injection, schedule: Q01DX009 (ip), vehicle: saline with Tween-80) 1 of 6; (dose: 200.0 mg/kg/injection, schedule: Q01DX009 (ip), vehicle: saline with Tween-80) 0 of 6.
As to `CC(=O)N1CCCC1=O`, under setting [3], the survivor count is on record as 4 of 6.
`CCCCCC(O)C1C(=O)OC(C)C(O)/C=C/C=C/C=C/C=C\C=C(\C)C(O)CC(O)CC(O)CC(O)CC(O)CC(O)CC1O` (stereo unspecified): the T/C (dose: 5.0 mg/kg/injection, schedule: Q01DX009 (ip), vehicle: saline) was 134 % of control. The survivor count (dose: 10.0 mg/kg/injection, schedule: Q01DX009 (ip), vehicle: saline) was 2 of 3; the survivor count (dose: 20.0 mg/kg/injection, schedule: Q01DX009 (ip), vehicle: saline) is 0 of 3; the survivor count (dose: 29.0 mg/kg/injection, schedule: Q01DX009 (ip), vehicle: Klucel (hydroxypropylcellulose) (HPC)) is 2 of 6; the survivor count (dose: 45.0 mg/kg/injection, schedule: Q01DX009 (ip), vehicle: Klucel (hydroxypropylcellulose) (HPC)) is on record as 0 of 6; the survivor count (dose: 65.0 mg/kg/injection, schedule: Q01DX009 (ip), vehicle: Klucel (hydroxypropylcellulose) (HPC)) is given as 0 of 6.
Turning to `CC(=O)/C(C)=C/C=O`, the T/C (dose: 2.0 mg/kg/injection, schedule: Q01DX009 (ip), vehicle: water) was 127 % of control.

Values taken from PubChem BioAssay AID328 (DTP/NCI, 2004).
